The source of these data is article doi:10.1101/2025.05.23.655724.

No constants are given. Whether binding was seen depends on the method and setting. In cells and extracts the contact can be indirect. Here binding means that the protein was enriched with, or labelled near, the bait; the list need not be complete.

This assay has as its target C-terminally Myc-FLAG-tagged murine dermokine β (mouse). Kind of assay: affinity purification with mass spectrometry.

B1: wildtype (wt) murine meprin α (enzyme, UniProt P28825 65-747)
chain: NAMRDPSSRWKLPIPYILADNLELNAKGAILHAFEMFRLKSCVDFKPYEGESSYIIFQKLSGCWSMIGDQQVGQNISIGEGCDFKATIEHEILHALGFFHEQSRTDRDDYVNIWWDQIITDYEHNFNTYDDNTITDLNTPYDYESLMHYGPFSFNKNESIPTITTKIPEFNTIIGQLPDFSAIDLIRLNRMYNCTATHTLLDHCDFEKTNVCGMIQGTRDDADWAHGDSSQPEQVDHTLVGQCKGAGYFMFFNTSLGARGEAALLESRILYPKRKQQCLQFFYKMTGSPADRFEVWVRRDDNAGKVRQLAKIQTFQGDSDHNWKIAHVTLNEEKKFRYVFLGTKGDPGNSSGGIYLDDITLTETPCPAGVWTIRNISQILENTVKGDKLVSPRFYNSEGYGVGVTLYPNGRITSNSGFLGLTFHLYSGDNDAILEWPVENRQAIMTILDQEADTRNRMSLTLMFTTSKNQTSSAINGSVIWDRPSKVGVYDKDCDCFRSLDWGWGQAISHQLLKRRNFLKGDSLIIFVDFKDLTHLNRTEVPASARSTMPRGLLLQGQESPALGESSRKAMLEESLPSSLGQRHPSRQKRSVENTGPMEDHNWPQYFRDPCDPNPCQNEGTCVNVKGMASCRCVSGHAFFYAGERCQAMHVHGSLLGLLIGCIAGLIFLTFVTFSTTNGKLRQ
B1: the binding entry is “binds”.
